Drawing on article PMC5374524, “Label-free quantification of calcium-sensor targeting to photoreceptor guanylate cyclase and rhodopsin kinase by backscattering interferometry” (Scientific Reports, 2017), this text covers binding for two molecules.

Sequences of proteins named here, by UniProt entry; tags and fusion partners are left off. Residues count along the entry.
UniProt Q02846, residues 868-1103: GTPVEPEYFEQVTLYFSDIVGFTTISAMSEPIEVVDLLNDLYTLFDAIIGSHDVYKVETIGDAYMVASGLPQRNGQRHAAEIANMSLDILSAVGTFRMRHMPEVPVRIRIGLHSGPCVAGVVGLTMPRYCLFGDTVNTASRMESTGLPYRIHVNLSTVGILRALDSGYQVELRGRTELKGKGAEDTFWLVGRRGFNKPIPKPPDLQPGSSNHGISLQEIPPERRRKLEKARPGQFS

These are yes or no findings as the source states them, for the method shown. Some binding calls cover weakened binding; strength is not graded here. For some assays here: Sequences can lack the tags named with a protein.

Assay [1] has as its target T1, GST fusion protein containing the N-terminal 25 amino acids of bovine GRK1 (bovine) (UniProt P28327).
T1 sequence: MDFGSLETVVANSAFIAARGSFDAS
The experiment in a line: backscattering interferometry (BSI); free solution, label-free; recoverin dilution series with constant 4 μM GST-NRK; 20 mM HEPES/KOH pH 7.5, 100 mM NaCl, 1 mM MgCl2, 1 mM EGTA (no Ca2+); GST alone as reference; both purified.

Assay [2] concerns the target MBP-CD: maltose binding protein fused to the catalytic domain of human GC-E (G868-S1103) (human) (UniProt Q02846). The experiment in a line: backscattering interferometry (BSI); free solution; myristoylated GCAP 0 to 6 μM with constant 375 nM MBP fusion protein; titration buffer with 200 μM Ca2+; MBP lacking a GC-E fragment as reference; both purified.

B1: myristoylated bovine recoverin (protein, UniProt P21457 1-202)
chain: MGNSKSGALSKEILEELQLNTKFTEEELSSWYQSFLKECPSGRITRQEFQTIYSKFFPEADPKAYAQHVFRSFDANSDGTLDFKEYVIALHMTSAGKTNQKLEWAFSLYDVDGNGTISKNEVLEIVTAIFKMISPEDTKHLPEDENTPEKRAEKIWGFFGKKDDDKLTEKEFIEGTLANKEILRLIQFEPQKVKEKLKEKKL
modifications: myristoylated
As for B1, the binding entry in assay [1] was “no binding (condition: in the absence of Ca2+ (1 mM EGTA))”.

B2: guanylate cyclase-activating protein 2 (GCAP2), myristoylated (natural protein, UniProt P51177 1-204, looked up)
chain: MGQQFSWEEAEENGAVGAADAAQLQEWYKKFLEECPSGTLFMHEFKRFFKVPDNEEATQYVEAMFRAFDTNGDNTIDFLEYVAALNLVLRGTLEHKLKWTFKIYDKDRNGCIDRQELLDIVESIYKLKKACSVEVEAEQQGKLLTPEEVVDRIFLLVDENGDGQLSLNEFVEGARRDKWVMKMLQMDLNPSSWISQQRRKSAMF
modifications: myristoylated
For the molecule B2, the binding entry in assay [2] is given as “binds”.
